PubChem BioAssay AID2685 (National Center for Advancing Translational Sciences (NCATS), 2010)
About 2,100 (0.66%) of roughly 320,000 compounds were called active. The inconclusive results got no clear call from the source; some entries with a clear call stand among them for comparison. Calls come from the whole dose curve; as a rule, active = well fitted inhibition curve with a large enough effect in the signal ratio, with a control signal flat (not every such curve was filed as active); inconclusive = small, poorly fitted or top-dose-only effect, or effect the other way, or a change in a side signal; inactive = flat fitted curve, though single readings scatter; the % refers to the signal ratio. A potency beside an inconclusive call is a rough fit, not a confirmed value.
% is set by controls: 0 for no effect and ±100 for the full control effect; potency is the fitted concentration of half-maximal effect.

Assay: qHTS Assay for Lipid Storage Modulators in Drosophila S3 Cells
Settings: BODIPY lipid droplet fluorescence, 18-24 h, cells fed with added oleic acid; lipid storage change, negative = inhibition: at 46.1 µM (top of the series) unless noted
In short: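 Laser-scanning cytometry quantifies lipid droplet accumulation (500–530 nm total intensity; droplet/cell object ratio) in oleic acid-fed (400 uM added) Drosophila S3 cells treated with a concentration series. 20 uM Triacsin C defined 100% inhibition.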
With `CC(=O)Oc1ccc(C(=O)NC(C)CCc2ccccc2)cc1` (stereo not given) the Potency was inconclusive: 16.4 µM [falling, single point]. In the case of `COc1ccc(O)c(C2=Nc3ccccc3N=C(c3cccs3)C2)c1`, the lipid storage change, negative = inhibition was inconclusive: 12.5%. In the case of `CCOC(=O)c1sc2nc(NC(=O)C(C)(C)C)sc2c1C`, the Potency was inconclusive: 0.0041 µM [activator, full curve, poor fit]. For `Cc1cc2cc(CNC(=O)c3cccc([N+](=O)[O-])c3)ccc2n1C`, the lipid storage change, negative = inhibition was inconclusive: 18.8%. With `O=C(CNc1ccccc1Cl)N/N=C1\CCCc2ccccc21` the Potency was inconclusive: 0.164 µM [falling, full curve]. For `Cc1cc(O)c(CN2CCN(S(=O)(=O)c3cccs3)CC2)cc1C(C)C`, the Potency was inconclusive: 29.1 µM [falling, single point]. In the case of `COc1cccc(C2Nc3ccccc3NC3=C2C(=O)CC(C)(C)C3)c1` (stereo not given), the lipid storage change, negative = inhibition was inconclusive: 29.4%. With `CNC(=O)c1ccc(-c2ccc(Cl)c(Cl)c2)s1` the lipid storage change, negative = inhibition was inconclusive: -9.17%. With `OCCOCCOc1cccc2[nH]ccc12` the lipid storage change, negative = inhibition was inconclusive: 14.5% [at 9.22 µM]. For `O=C(COc1ccc([N+](=O)[O-])cc1)Nc1nc(-c2ccccn2)cs1`, the lipid storage change, negative = inhibition was inconclusive: 1.99%. In the case of `O=C(CCc1nc2sc3c(c2c(=O)[nH]1)CCCC3)NCCOc1ccccc1`, the lipid storage change, negative = inhibition was “inconclusive”. In the case of `COc1cc2nc3c4ccccc4n(CC#N)c3nc2cc1OC`, the Potency was inconclusive: 0.0046 µM [activator, full curve]. In the case of `c1csc(-c2nc3nc4ccccc4nc3n2Cc2ccc3c(c2)OCO3)c1`, the Potency was inconclusive: 23.1 µM [rising, partial curve, poor fit]. For `CCOC(=O)C1(Cc2cccc(Cl)c2)CCCN(CCO)C1` (stereo not given), the lipid storage change, negative = inhibition was inconclusive: 24.1%. In the case of `CCc1nnc(NC(=O)Cc2c[nH]c3ccccc23)s1`, the lipid storage change, negative = inhibition was inconclusive: 6.69%. For `Cc1noc(NS(=O)(=O)c2ccc(NC(=O)CSc3nc4c(cc3C#N)CCCC4)cc2)c1C`, the lipid storage change, negative = inhibition was inconclusive: -36%. For `COC(=O)c1ccc(OCC(=O)Nc2ccccc2C(=O)NC2CC2)cc1`, the lipid storage change, negative = inhibition was inconclusive: 6.17%. For `COc1ccc(CCNC(=O)CCCN2C(=O)c3ccccc3C2=O)cc1OC`, the lipid storage change, negative = inhibition was “inactive”. In the case of `CCc1ccccc1NC(=O)CN(C)C(=O)CSc1nnc(Nc2cccc(C)c2)s1`, the lipid storage change, negative = inhibition was inconclusive: -91.3%. In the case of `O=S(=O)(Nc1ccccn1)c1ccc(Oc2ccccc2)cc1`, the Potency was inconclusive: 1.46 µM [falling, partial curve]. With `Cc1ccc(C)n1-c1ccc(N2CCOCC2)nc1` the lipid storage change, negative = inhibition was inconclusive: 47%. In the case of `CCN1CCN(C2CCCCC2NS(=O)(=O)c2ccc(Cl)cc2)CC1` (stereo not given), the lipid storage change, negative = inhibition was inconclusive: 26.2%. With `CCOC(=O)c1cc(C(C)C)sc1NC(=O)COC(=O)c1nccnc1N` the Potency was inconclusive: 0.731 µM [falling, full curve]. For `NS(=O)(=O)c1cccc(NC(=O)COC(=O)CCCc2c[nH]c3ccccc23)c1`, the lipid storage change, negative = inhibition was inconclusive: 1.34%. For `COc1ccc(C(=O)NNC2CC(=O)N(Cc3ccccc3)C2=O)cc1OC` (stereo not given), the lipid storage change, negative = inhibition was inconclusive: 18.7%. In the case of `Cc1cccn2c(=O)c3cc(C(=O)NCCCn4ccnc4)n(C)c3nc12`, the Potency was inconclusive: 1.84 µM [activator, partial curve]. With `O=C(Nc1cccc(Br)c1)c1ccc(OC2CSC2)cc1` the lipid storage change, negative = inhibition was inconclusive: 3.33%. In the case of `COc1ccccc1N(C)C(=O)c1cc(S(=O)(=O)N2CCc3ccccc32)cn1C`, the Potency was inconclusive: 9.2 µM [falling, partial curve, poor fit]. With `Cc1ccnc(SCCn2c(N3CCN(Cc4ccccc4)CC3)nc3c2c(=O)[nH]c(=O)n3C)n1` the lipid storage change, negative = inhibition was inconclusive: -19.7%. For `O=C(O)c1ccc(Cn2cc(/C=C\[N+](=O)[O-])c3ccccc32)o1`, the lipid storage change, negative = inhibition was inconclusive: -49.9%. For `COc1ccc(-c2[nH]ncc2CN2CCCC(C(=O)c3cccc(OC)c3)C2)cc1` (stereo not given), the lipid storage change, negative = inhibition was inconclusive: 26.5%. With `CCOc1ccccc1NC(=O)C1CCN(S(=O)(=O)c2cccc3cccnc23)CC1` the Potency was inconclusive: 6.51 µM [cytotoxic, single point]. For `Cc1sc2nc(-c3cccnc3)[nH]c(=O)c2c1-c1ccccc1`, the lipid storage change, negative = inhibition was inconclusive: 40.2%. For `Cn1/c(=N/N=C/c2ccccn2)sc2ccccc21`, the Potency was inconclusive: 18.4 µM [activator, single point]. In the case of `O=C(Nc1ccc(O)c2c(=O)cc(-c3ccccc3Cl)oc12)c1ccccc1Cl`, the Potency was inconclusive: 8.2 µM [activator, partial curve]. In the case of `Cc1ccc(-n2[nH]c(C)c(/C=N/c3cccc(C)n3)c2=O)cc1`, the lipid storage change, negative = inhibition was inconclusive: 9.37%. With `N#CCCn1cc(C(=O)CN2C(=O)C(=O)N(C3CCCC3)C2=O)c2ccccc21` the lipid storage change, negative = inhibition was “inconclusive”. In the case of `O=C(CN1CCOCC1)Nc1ccc([N+](=O)[O-])cc1`, the lipid storage change, negative = inhibition was inconclusive: -24.2%. In the case of `COc1cc(C(C(=O)NC2CCCCC2)N(C(=O)c2cnccn2)c2ccccc2)cc(OC)c1OC` (stereo not given), the lipid storage change, negative = inhibition was inconclusive: 47.8%. In the case of `CCOC(=O)CCC(=O)N1CCOCCOCCN(C(=O)CCC(=O)OCC)CCOCC1`, the Potency was inconclusive: 23.1 µM [cytotoxic, partial curve, poor fit]. For `O=C(COC(=O)C1(c2ccc(F)cc2)CCCC1)NCc1ccc2c(c1)OCO2`, the Potency was inconclusive: 29.1 µM [falling, single point]. For `COc1cc(NC(=O)C/C(C)=N/NC(=O)Cc2ccc(Cl)cc2)c(OC)cc1Cl`, the lipid storage change, negative = inhibition was inconclusive: 21.9%. With `O=C(CSCc1ccccc1)N1CCN(c2ccccc2)CC1` the lipid storage change, negative = inhibition was inconclusive: 1.63%. For `CCCCCN1N=C(C)CC1=O`, the lipid storage change, negative = inhibition was inconclusive: 18.4%. For `CCCCN(C1CCS(=O)(=O)C1)S(=O)(=O)c1cc(C)ccc1C` (stereo not given), the Potency was inconclusive: 29.1 µM [falling, single point]. In the case of `COc1ccc(C(=O)N(CCCO)C(C)C(=O)NC2CCCCC2)cc1OC` (stereo not given), the Potency was inconclusive: 18.4 µM [falling, single point]. For `CCOc1ccc2nc(Cl)sc2c1`, the lipid storage change, negative = inhibition was inconclusive: -7.01%. For `CC(C)NC(=O)CSc1nnc(-c2ccco2)n1N`, the Potency was inconclusive: 29.1 µM [falling, single point]. In the case of `CCCCC(O)(c1ccc(F)cc1)C(CN1CCOCC1)c1ccc(Cl)cc1` (stereo not given), the Potency was inconclusive: 6.51 µM [rising, single point]. For `COc1ccc(C2=NOC(C(=O)NC(C)C)C2)cc1` (stereo not given), the Potency was inconclusive: 29.1 µM [falling, single point]. With `COc1ccc(C(=O)NCC(=O)N2CCN(C(=O)c3ccco3)CC2)cc1OC` the lipid storage change, negative = inhibition was inconclusive: -28.7% [at 0.0737 µM]. For `CC1CCC2(CC1)C(Nc1cccc(Cl)c1)=NC(=S)N2CC#N` (stereo not given), the lipid storage change, negative = inhibition was inconclusive: -28.9%. In the case of `CC(=O)NCCc1nc2cc(NC(=O)c3ccc([N+](=O)[O-])cc3)ccc2n1C`, the lipid storage change, negative = inhibition was inconclusive: -3.27%. In the case of `O=C(CCn1cnnn1)Nc1ccccc1F`, the lipid storage change, negative = inhibition was inconclusive: -29.5%. In the case of `CCOC(=O)c1c(NC(=O)CSc2cccc[n+]2[O-])sc(C(=O)Nc2ccccc2)c1C`, the lipid storage change, negative = inhibition was inconclusive: -24.6%. In the case of `COc1ccc2[nH]c(C(=O)O)c(CCN3C(=O)c4ccc(C(=O)O)cc4C3=O)c2c1`, the lipid storage change, negative = inhibition was “inactive”. For `COc1ccc(C(C(=O)NC2CCCCC2)N(C(=O)c2sc(C)nc2C)c2ccccc2C)cc1` (stereo not given), the lipid storage change, negative = inhibition was inconclusive: 17.7%. For `Cc1ccc(OCC(=O)NNC(=O)CCc2ccccc2)cc1`, the lipid storage change, negative = inhibition was inconclusive: 6.9%. In the case of `Cc1c(C(=O)Nc2ccccc2C(=O)N2CCOCC2)cccc1[N+](=O)[O-]`, the lipid storage change, negative = inhibition was inconclusive: 1.99%. In the case of `COCCNC(=O)c1cc(-c2cccnc2)nc2ccc(Br)cc12`, the Potency was inconclusive: 1.3 µM [rising, full curve]. In the case of `CCOC(=O)c1cc2c(C)n(-c3ccc(C)cc3)c(C)c2ccc1=O`, the lipid storage change, negative = inhibition was inconclusive: -10.8%. In the case of `C/C(=N\NC(=O)c1nnn(-c2nonc2N)c1-c1ccc(Cl)c(Cl)c1)c1ccncc1`, the lipid storage change, negative = inhibition was inconclusive: 38%. For `CC1Cc2ccccc2N1C(=O)C1CCCN(S(=O)(=O)c2cccc3nsnc23)C1` (stereo not given), the lipid storage change, negative = inhibition was inconclusive: 2.76%. In the case of `CC(C)(C)c1ccc(NC(=O)Cn2cnc3cc([N+](=O)[O-])ccc3c2=O)cc1`, the lipid storage change, negative = inhibition was inconclusive: 10.6%. In the case of `CC1(OCON)CCCc2ccccc21` (stereo not given), the lipid storage change, negative = inhibition was inconclusive: -17.9%. With `COc1ccc2cc(Br)ccc2c1CC(=O)NC1CC(C)(C)NC(C)(C)C1` the Potency was inconclusive: 4.11 µM [falling, single point]. For `CC1=Nc2ccccc2/C1=C\c1nc(-c2ccc(F)cc2)oc1O`, the Potency was active: 4.11 µM. For `COc1ccc(S(=O)(=O)N2CCCCC2)cc1NC(=O)CN(Cc1ccco1)Cc1ccco1`, the lipid storage change, negative = inhibition was inconclusive: -8.47%. In the case of `O=C(CNC(=O)c1ccc(Br)o1)Nc1ccc(N2CCCCCC2)cc1`, the Potency was inconclusive: 4.11 µM [activator, partial curve, poor fit]. For `Cc1csc(NC(=O)C(C)Oc2ccc(Cl)cc2C)n1` (stereo not given), the Potency was inconclusive: 0.164 µM [activator, full curve, poor fit]. In the case of `O=C(Nc1nc(-c2ccccn2)cs1)c1ncc(Cl)c(Cl)c1Cl`, the Potency was inconclusive: 6.51 µM [activator, partial curve, poor fit]. For `CCN(CC(=O)Nc1c(F)cccc1F)C(=O)c1cn2ccccc2n1`, the Potency was inconclusive: 23.1 µM [activator, single point]. With `O=C(O)c1ccc(NC(=O)c2cccc(C(=O)Nc3ccc(C(=O)O)cc3)c2)cc1` the lipid storage change, negative = inhibition was inconclusive: 15.4%. With `CCOc1ccc(NS(=O)(=O)c2ccc(C(=O)NCCCN3CCCC3=O)cc2)cc1` the lipid storage change, negative = inhibition was inconclusive: -16.7%. In the case of `COc1ccc(C2=NN(CCC(=O)NCc3ccc4c(c3)OCO4)C(=O)CC2)cc1`, the lipid storage change, negative = inhibition was inconclusive: 21.8%.
